Measured values reported in the supplement of paper PMC4635364.
Counter-ions that a name gives are not always drawn. Some of the results follow. Single values are uncertain here, since repeats match poorly.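 ReNCell VM, a human fetal ventral-midbrain neural progenitor line, was differentiated without mitogens. Blinded raters scored images stained for doublecortin (early neurons) or tyrosine hydroxylase (dopaminergic neurons) against untreated wells (0 = no change). Scores were averaged across repeats and both raters, and compounds averaging 2 or more were selected as hits for retesting.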 *1 amine or outer side, *2 acyl side, *3 side chain or, on linkers, in order; H or OH if unused. Where a SMILES comes first, the peptide text is derived from it. Bridges are numbered along the chain shown (N, C = ends). [ ]: non-standard residue; d: D form. The star is where a group is joined. ξ: configuration not given here. X2 = N=C1NCCC([C@H](N[*:1])C(=O)[*:2])N1; ΔAla(Z-3-ureido) = NC(=O)N/C=C(\N)C(=O)O; ξβ3hOrn = NCCCC(N)CC(=O)*; Dap = NC[C@H](N)C(=O)O

Legend:
ReNCell VM [1] = assay: neuronal differentiation score (DCX+ cell fraction vs untreated, manual image score) (score (-3 to 3)); higher = more neuronal differentiation; details: 2 uM, 2 weeks
ReNCell VM [2] = assay: dopaminergic neuron differentiation score (TH+ cell fraction vs untreated, manual image score) (score (0 to 3)); higher = more TH+ dopaminergic neuron differentiation; details: 2 uM, 4 weeks, BDNF 10 ng/ml + GDNF 10 ng/ml

Q: Which results are given for `CCCCCCCCCCCCCCCCCCNC(=O)OCC(COP(=O)([O-])OCC[n+]1ccsc1)OC` (stereo unspecified)?
A: neuronal differentiation score (ReNCell VM [1]; library: LOPAC): inactive: 0; dopaminergic neuron differentiation score (ReNCell VM [2]; library: LOPAC): inactive: 0

Q: `CSC(=N)NCCC[C@H](N)C(=O)O` [S-Methyl-L-thiocitrulline acetate] was tested. Which neuronal differentiation score (ReNCell VM [1]; library: LOPAC) did it give?
A: inactive: 0

Q: And the “dopaminergic neuron differentiation score” value (ReNCell VM [2]; library: LOPAC)?
A: inactive: 0

Q: `COc1cc(N)c(Cl)cc1C(=O)OCCN1CCCCC1` was tested. Which neuronal differentiation score (ReNCell VM [1]; library: LOPAC) did it give?
A: inactive: 0

Q: What about the “dopaminergic neuron differentiation score” value (ReNCell VM [2]; library: LOPAC) of the same molecule?
A: inactive: 0

Q: What does the source list for `NC(N)=Nc1ccc(Cl)cc1` [4-Chlorophenylguanidine hydrochloride]?
A: neuronal differentiation score (ReNCell VM [1]; library: Tocriscreen): inactive: 0; dopaminergic neuron differentiation score (ReNCell VM [2]; library: Tocriscreen): inactive: 0

Q: With `CC(C)CCCC(C)C1CCC2C3CCC4CCCCC4(C)C3CCC12C` (stereo unspecified) as the molecule, how does the neuronal differentiation score (ReNCell VM [1]; library: Spectrum) read?
A: inactive: 0

Q: And the “dopaminergic neuron differentiation score” value (ReNCell VM [2]; library: Spectrum)?
A: inactive: 0

Q: Which neuronal differentiation score (ReNCell VM [1]; library: Spectrum) does the source give for `CN(C)[C@@H]1C(O)=C(C(N)=O)C(=O)[C@@]2(O)C(O)=C3C(=O)c4c(O)ccc(Cl)c4[C@@](C)(O)[C@H]3C[C@@H]12` here?
A: inactive: 0

Q: And the “dopaminergic neuron differentiation score” value (ReNCell VM [2]; library: Spectrum)?
A: inactive: 0

Q: How did the neuronal differentiation score (ReNCell VM [1]; library: Spectrum) turn out when `Cc1cccc(CN2CCN(C(c3ccccc3)c3ccc(Cl)cc3)CC2)c1` (stereo unspecified) was run?
A: inactive: 0

Q: And the “dopaminergic neuron differentiation score” value (ReNCell VM [2]; library: Spectrum)?
A: inactive: 0

Q: `COc1ccccc1N1CCN(CCCNc2cc(=O)n(C)c(=O)n2C)CC1` was tested. Which neuronal differentiation score (ReNCell VM [1]; library: Spectrum) did it give?
A: inactive: 0

Q: And the “dopaminergic neuron differentiation score” value (ReNCell VM [2]; library: Spectrum)?
A: inactive: 0

Q: What does the source list for `NS(=O)(=O)c1ccc(C(=O)O)cc1`?
A: neuronal differentiation score (ReNCell VM [1]; library: Spectrum): inactive: 0; dopaminergic neuron differentiation score (ReNCell VM [2]; library: Spectrum): inactive: 0

Q: For `O=C(O[C@@H]1Cc2c(O)cc(O)cc2O[C@@H]1c1cc(O)c(O)c(O)c1)c1cc(O)c(O)c(O)c1`, which neuronal differentiation score (ReNCell VM [1]; library: Spectrum) is on record?
A: inactive: 0

Q: What about the “dopaminergic neuron differentiation score” value (ReNCell VM [2]; library: Spectrum) of the same molecule?
A: inactive: 0

Q: `COc1cc(-c2coc3cc(O[C@@H]4O[C@H](CO)[C@@H](O)[C@H](O)[C@H]4O)c(OC)c(O)c3c2=O)cc(O)c1OC` was tested. Which neuronal differentiation score (ReNCell VM [1]; library: Spectrum) did it give?
A: inactive: 0

Q: And the “dopaminergic neuron differentiation score” value (ReNCell VM [2]; library: Spectrum)?
A: inactive: 0

Q: How did the neuronal differentiation score (ReNCell VM [1]; library: Spectrum) turn out when `Nc1c2c(nc3ccccc13)CCCC2` was run?
A: inactive: 0

Q: And the “dopaminergic neuron differentiation score” value (ReNCell VM [2]; library: Spectrum)?
A: inactive: 0

Q: `CC(CN1c2ccccc2Sc2ccccc21)N(C)C` (stereo unspecified) was tested. Which neuronal differentiation score (ReNCell VM [1]; library: Spectrum) did it give?
A: inactive: 0

Q: What about the “dopaminergic neuron differentiation score” value (ReNCell VM [2]; library: Spectrum) of the same molecule?
A: inactive: 0

Q: Which results are given for `CCOC1O[C@H]([C@@H](COCc2ccccc2)OCc2ccccc2)[C@H](OCc2ccccc2)[C@H]1O` (stereo partly specified) [Tribenoside]?
A: neuronal differentiation score (ReNCell VM [1]; library: Prestwick): inactive: 0; dopaminergic neuron differentiation score (ReNCell VM [2]; library: Prestwick): inactive: 0

Q: `CCC(=O)O[C@H](CC(=O)O)C[N+](C)(C)C` was tested. Which neuronal differentiation score (ReNCell VM [1]; library: Spectrum) did it give?
A: inactive: 0

Q: What about the “dopaminergic neuron differentiation score” value (ReNCell VM [2]; library: Spectrum) of the same molecule?
A: inactive: 0

Q: Which results are given for `O=C1CN(/N=C/c2ccc(-c3ccc([N+](=O)[O-])cc3)o2)C(=O)N1` [Dantrolene, sodium salt]?
A: neuronal differentiation score (ReNCell VM [1]; library: Tocriscreen): inactive: 0; dopaminergic neuron differentiation score (ReNCell VM [2]; library: Tocriscreen): inactive: 0

Q: For `CC1(C)NC(=O)N(c2ccc([N+](=O)[O-])c(C(F)(F)F)c2)C1=O`, which neuronal differentiation score (ReNCell VM [1]; library: Spectrum) is on record?
A: inactive: 0

Q: What about the “dopaminergic neuron differentiation score” value (ReNCell VM [2]; library: Spectrum) of the same molecule?
A: inactive: 0

Q: With `C[C@@H]1NC(=O)[C@@H](N)CNC(=O)[C@H](C2CCNC(=N)N2)NC(=O)/C(=C/NC(N)=O)NC(=O)[C@H](CNC(=O)CC(N)CCCN)NC1=O.N=C1NCC[C@H]([C@@H]2NC(=O)/C(=C/NC(N)=O)NC(=O)[C@H](CNC(=O)C[C@@H](N)CCCN)NC(=O)[C@H](CO)NC(=O)[C@@H](N)CNC2=O)N1` (H-[Dap]S[Dap](ξβ3hOrn)[ΔAla(Z-3-ureido)][X2]; lactam 1-C) as the molecule, how does the neuronal differentiation score (ReNCell VM [1]; library: Spectrum) read?
A: inactive: 0

Q: And the “dopaminergic neuron differentiation score” value (ReNCell VM [2]; library: Spectrum)?
A: inactive: 0
